{"source": "patent US20180049962A1", "binders": {"B1": {"name": "LanRFP (red lancelet fluorescent protein), His-tagged recombinant protein expressed in E. coli (protein)", "chain": "MVSKGEEDNMAPLPATHDLHISGSINGHEFDLEGSGKGNAKEGYQELHLKSNKGDLSFSPWILVPNIGYGFYQYLPFPDGAMSPYQAAMHDGSGYVMHRSMQFEDGAMLHSDHRYIYKGNHIKGEFRLTGSGFPADGPVMTNSLTAADWCVDKLLYPNDNTIIGKFDWTYTTTSGKRYQSDVQTNVTFGKPIAADILKKQPMFVFRKVELKHTKTELNFKQWQKAFQDIAGMDELYK"}}, "key": {"[1]": {"biological_target": "LanRFP (red lancelet fluorescent protein), His-tagged recombinant protein expressed in E. coli (Brachiostoma lanceolatum (lancelet))", "assay": "SDS-PAGE (denaturing electrophoresis), self-association into a homotetramer"}, "[2]": {"biological_target": "LanRFP (red lancelet fluorescent protein), His-tagged recombinant protein expressed in E. coli (Brachiostoma lanceolatum (lancelet))", "assay": "SDS-PAGE after boiling in SDS/DTT loading dye, band at the tetramer position (~105 kD)"}}, "note": "These are yes or no findings as the source states them, for the method shown. Some binding calls cover weakened binding; strength is not graded here. Tags and fused reporters may be left off the sequences shown."}
{"binder": "B1", "values": [{"measurement": "binding", "setting": "[1]", "result": "binds"}, {"measurement": "binding", "setting": "[2]", "result": "binds"}]}
